Measured values as given in US8859284B2, “Delivery of nanoparticles to neurons” (The United States of America, as represented by the …, priority 2009, dated 2014).
Part of at least one peptide drawing is inferred or uncertain, most often the ends. Square brackets hold non-standard residues; d marks the D form. Peptide text beside a SMILES is read from it. Aib = CC(C)(N)C(=O)O

What was measured:
HEK 293T/17 cells = test: Cellular delivery of QDs, intracellular fate by fluorescence microscopy; details: summary of QD delivery strategies; some agents also tested in COS-1
Method: Human embryonic kidney (HEK 293T/17) and African green monkey kidney (COS-1) cell lines (ATCC, Manassas, Va.) were cultured in complete growth medium (Dulbecco's Modified Eagle's Medium (DMEM; purchased from ATCC)) supplemented with 1% (v/v) antibiotic/antimycotic and 10% (v/v) heat inactivated fetal bovine serum (ATCC). Cells were cultured in T-25 flasks and incubated at 37° C. under 5% CO2 atmosphere and a subculture was performed every 3-4 days (see reference 13).
The QD delivery experiments were performed on adherent cells seeded into the wells of Lab-Tek 8-well chambered #1 borosilicate coverglass (Nalge Nunc, Rochester, N.Y.) coated with 2 μg/mL fibronectin. For electroporation and nucleofection, adherent cells were harvested by trypsinization prior to performing QD delivery to cells in suspension. Cells were then seeded to chambered coverglass wells and imaged after cell attachment. The endosomal marker AlexaFluor647-transferrin was included as indicated in the text. For imaging, cells were washed with phosphate buffered saline (PBS, 137 mM NaCl, 10 mM phosphate, 3 mM KCl, pH 7.4), fixed with 3.7% paraformaldehyde in PBS and nuclei were stained with DAPI (Sigma) unless otherwise indicated.
For electroporation, cells were harvested by trypsinization and recovered for 1 hour in complete growth medium, pelleted, and resuspended in PBS. […]

[1] = system: COS-1 and HEK 293T/17 cells; test: Cellular delivery of QDs, result stated for both cell lines together; type: cell-based, African green monkey; Human
Text: Merged images were generated using Adobe PhotoShop.

`CC(C)C[C@H](NC(=O)CNC(=O)[C@H](Cc1c[nH]c2ccccc12)NC(=O)[C@H](Cc1c[nH]cn1)NC(=O)[C@H](Cc1c[nH]cn1)NC(=O)[C@H](Cc1c[nH]cn1)NC(=O)[C@H](Cc1c[nH]cn1)NC(=O)[C@H](Cc1c[nH]cn1)NC(=O)[C@@H](N)Cc1c[nH]cn1)C(=O)N[C@@H](C)C(=O)NC(C)(C)C(=O)N[C@@H](CO)C(=O)NCC(=O)N1CCC[C@H]1C(=O)N[C@@H](CCCCN)C(=O)N[C@@H](CCCCN)C(=O)N[C@@H](CCCCN)C(=O)N[C@@H](CCCNC(=N)N)C(=O)N[C@@H](CCCCN)C(=O)N[C@H](C(=O)O)C(C)C` [NLS peptide, reference compound] (H-HHHHHHWGLA[Aib]SGPKKKRKV-OH) was tested, and the “Quantum Dot Fate” value (HEK 293T/17 cells) was “Endosomal, QDs punctate” and the “intracellular distribution of QDs” value [1] was “completely internalized within endosomes”.
